Reference: patent US8575116B1, “Polyacetylenic compounds for protecting against pancreatic islet atrophy” (Academia Sinica, priority 2010, dated 2013)

Experiment: Food intake of db/db mice during treatment
Format: in vivo, mouse

| SMILES | Mean food intake (2.5 mg/kg/day, week 1) [g/mouse/day] | Mean food intake (2.5 mg/kg/day, week 2) [g/mouse/day] | Mean food intake (2.5 mg/kg/day, week 4) [g/mouse/day] | Mean food intake (2.5 mg/kg/day, week 6) [g/mouse/day] | Mean food intake (0.5 mg/kg/day, week 1) [g/mouse/day] | Mean food intake (0.5 mg/kg/day, week 2) [g/mouse/day] | Mean food intake (0.5 mg/kg/day, week 4) [g/mouse/day] | Mean food intake (0.5 mg/kg/day, week 6) [g/mouse/day] |
| --- | --- | --- | --- | --- | --- | --- | --- | --- |
| CCC1=C(C)CN(C(=O)NCCc2ccc(S(=O)(=O)NC(=O)N[C@H]3CC[C@H](C)CC3)cc2)C1=O [glimepiride, reference compound] | 4.3 | 5.3 | 6.5 | 6.7 | – | – | – | – |
| CC#CC#CC#CC#CCCC(CO)O[C@@H]1O[C@H](CO)[C@@H](O)[C@H](O)[C@H]1O (stereo partly drawn) [cytopiloyne, 2-β-D-glucopyranosyloxy-1-hydroxytrideca-5,7,9,11-tetrayne] | 4.7 | 4.7 | 6.0 | 6.1 | 5.9 | 6.5 | 6.6 | 7.0 |
